Experimental data from PubChem BioAssay AID504847 (National Center for Advancing Translational Sciences (NCATS), 2011).
Among all 400,000 compounds or so, about 3,700 (0.93%) were called active. The inconclusive results got no clear call from the source; some entries with a clear call stand among them for comparison. Calls follow the shape of the dose curve; as a rule, active = well fitted inhibition curve with a large enough effect; inconclusive = small, poorly fitted or top-dose-only effect, or another doubt; inactive = no such curve, though single readings can be large or run the other way. Potencies of inconclusive entries are doubtful fits and often do not repeat.

Chains of the proteins cited; added tags and fusions are not shown. Lines headed by an entry give the natural chain unless they say otherwise; changes in a name come on top.
UniProt P11473: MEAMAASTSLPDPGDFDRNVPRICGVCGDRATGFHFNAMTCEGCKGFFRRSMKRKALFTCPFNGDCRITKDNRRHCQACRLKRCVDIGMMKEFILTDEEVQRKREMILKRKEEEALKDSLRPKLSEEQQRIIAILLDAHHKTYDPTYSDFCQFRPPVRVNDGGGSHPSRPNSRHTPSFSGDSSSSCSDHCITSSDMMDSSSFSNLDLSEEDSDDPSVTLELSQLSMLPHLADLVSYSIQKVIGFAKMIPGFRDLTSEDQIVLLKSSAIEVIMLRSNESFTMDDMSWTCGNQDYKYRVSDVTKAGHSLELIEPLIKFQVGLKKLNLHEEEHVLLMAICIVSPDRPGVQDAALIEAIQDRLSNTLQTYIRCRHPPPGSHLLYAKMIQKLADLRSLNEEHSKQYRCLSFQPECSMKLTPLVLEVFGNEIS

Target: Vitamin D3 receptor (Homo sapiens) (UniProt P11473)
Experiment: Inhibitors of the vitamin D receptor (VDR): qHTS
Conditions: VDR-SRC2-3 peptide fluorescence polarization, 2 h; max response, negative = inhibition: hits give low values
How it was run: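 Fluorescence polarization assay measuring small-molecule disruption of VDR binding to the coregulator peptide SRC2-3. Compounds were pin-transferred (23 nl) into the reagent mix and incubated 2 h at room temperature before reading.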
% is scaled to controls: 0 for no effect and ±100 for the full control effect; potency is read from the fitted curve at half-maximal effect.

Potency, inconclusive:
O=C(Nc1ccc2ncccc2c1)c1ccccc1 31.6 µM [inhibitor, single point]
Cn1c(=O)[nH]c(=O)c2c1nc(N1CCN(C(=O)c3ccco3)CC1)n2CCCSc1ncccn1 100 µM [inhibitor, single point]
COc1ccc(C(C#N)=C2C=CC(=NO)C=C2)cc1 89.1 µM [inhibitor, single point]
COc1ccc(C(=O)/C=C/C(=O)N(CC(=O)NC2CCCCC2)Cc2ccccc2OC)c(O)c1 56.2 µM [inhibitor, partial curve, poor fit]
O=C(c1ccccc1)N1CCN(Cc2cccc(Oc3ccccc3)c2)CC1 39.8 µM [inhibitor, single point]
O=[N+]([O-])c1ccc(N/N=C/c2c[nH]c3ccccc23)cc1 89.1 µM [inhibitor, single point]
Cc1ccc(NC(=O)COC(=O)c2ccc(OC(F)F)cc2)cc1S(=O)(=O)N1CCCCC1 100 µM [inhibitor, single point]
Cc1ccnc(NC(=O)c2cccs2)c1 56.2 µM [inhibitor, partial curve, poor fit]
COc1cc(C(C[N+](=O)[O-])c2c(N)n(C)c(=O)n(C)c2=O)ccc1O (stereo unspecified) 79.4 µM [inhibitor, partial curve]
COc1ccc(S(=O)(=O)N2CCCC2)cc1Br 79.4 µM [inhibitor, single point]
O=C(O)c1ccc2nc(-c3cc4cc(F)ccc4oc3=O)[nH]c2c1 1.26 µM [inhibitor, full curve, poor fit]
Cc1nn(Cc2ccc([N+](=O)[O-])cc2)c(=O)n1-c1cccc(Cl)c1 89.1 µM [inhibitor, partial curve, poor fit]
CCC(C)CC(C)CC(C)C(=O)/C=C(/O)C(C)CC(C)C/C=C/C(C)C(O)C(C)C(O)CC1CCC(C)(C)O1 (stereo unspecified) 89.1 µM [inhibitor, single point]
CCOc1ccc(CC(=O)N2CCN=C2SC)cc1 100 µM [inhibitor, single point]
O=C(NCc1ccccc1)Nc1cccn(Cc2cccc(F)c2)c1=O 8.91 µM [inhibitor, partial curve]
O=C(CC1C(=O)NCCN1Cc1ccccc1C(F)(F)F)NCCc1ccccn1 (stereo unspecified) 112 µM [inhibitor, partial curve, poor fit]
CN(C)CCCNC(=O)N1c2ccccc2C=Cc2ccccc21 70.8 µM [inhibitor, single point]
Cc1ccc(-c2nc(CS(=O)(=O)CC(=O)N3CC(C)CC(C)C3)c(C)o2)cc1 (stereo unspecified) 89.1 µM [inhibitor, single point]
Cc1cc(C)c2nc(-c3cccnc3)cc(C(=O)NC(C)c3cnn(C)c3C)c2c1 (stereo unspecified) 89.1 µM [inhibitor, single point]
O=C1c2ccccc2C(=O)C1Cc1cccc2ccccc12 56.2 µM [inhibitor, partial curve, poor fit]
COc1cccc(C(C[N+](=O)[O-])c2c(C)[nH]n(-c3ccccc3)c2=O)c1 (stereo unspecified) 63.1 µM [inhibitor, partial curve, poor fit]
N#C/C(=C\c1c[nH]c2ccccc12)C(=O)c1ccc(O)c(O)c1 50.1 µM [inhibitor, partial curve, poor fit]
CC1(c2ccc([N+](=O)[O-])cc2)Nc2ccccc2S1 (stereo unspecified) 56.2 µM [inhibitor, partial curve, poor fit]
Cc1c(N2C(=O)c3ccc(Br)cc3C2=O)c(=O)n(-c2ccccc2)n1C 100 µM [inhibitor, single point]
Cc1cc(N)ccc1-n1c(C)ccc1C 89.1 µM [inhibitor, single point]
CCc1ccccc1N(CC(=O)N1CCc2ccccc2C1)S(C)(=O)=O 6.31 µM [inhibitor, partial curve, poor fit]
Cc1cc(O)c(C2=Nc3ccccc3SC(c3ccc(Cl)cc3)C2)c(=O)o1 (stereo unspecified) 89.1 µM [inhibitor, single point]
CC(=O)N1c2ccccc2C2(O)N=C(C)SC12 (stereo unspecified) 56.2 µM [inhibitor, partial curve, poor fit]
COc1ccc(S(=O)(=O)c2c(O)c3ccc(C(=O)Nc4cccc(F)c4)cc3[nH]c2=O)cc1 100 µM [inhibitor, single point]
COc1cc(SC#N)ccc1N=Cc1c(C)[nH]n(-c2ccc(C)cc2)c1=O 15.8 µM [inhibitor, full curve, poor fit]
O=[N+]([O-])c1cc(Cl)cc(/C=N\Nc2ccccn2)c1O 31.6 µM [inhibitor, partial curve, poor fit]
COc1ccc(-c2cc(=O)oc3cc(OCC(=O)Nc4ccccn4)ccc23)cc1 20 µM [inhibitor, partial curve, poor fit]
COc1cc(/C=C/C(=O)c2ccc(O)cc2)ccc1OCC#N 89.1 µM [inhibitor, partial curve, poor fit]
COc1cc(/C=C2\SC(=S)N(CC(=O)O)C2=O)ccc1OS(=O)(=O)c1ccc(C)cc1 50.1 µM [inhibitor, partial curve, poor fit]
CC1=C(C(=O)OCC2CCCCC2)C(c2ccc(F)cc2)NC(=O)N1 (stereo unspecified) 31.6 µM [inhibitor, partial curve, poor fit]
COc1ccccc1NS(=O)(=O)c1cc(NC(=O)Nc2cccc(C)c2)ccc1N1CCCCC1 79.4 µM [inhibitor, single point]
CC(Oc1cc2oc(=O)c3c(c2cc1Cl)CCCC3)C(=O)NCCN1CCOCC1 (stereo unspecified) 35.5 µM [inhibitor, single point]
CCc1nc2c(sc3nc4c(cc32)COC(C)(C)C4)c(=O)n1Cc1ccco1 79.4 µM [inhibitor, single point]
COc1ccc(S(=O)(=O)N(C)c2ccc(C(=O)NCc3ccncc3)cc2)cc1 89.1 µM [inhibitor, single point]
Cc1ccc2nc(NS(=O)(=O)c3ccc(Cl)cc3)c(Nc3ccc(C(=O)O)cc3)nc2c1 79.4 µM [inhibitor, single point]

Reprinted from above for reference:
Potency, inconclusive:
CC1(c2ccc([N+](=O)[O-])cc2)Nc2ccccc2S1 (stereo unspecified) 56.2 µM [inhibitor, partial curve, poor fit]
Cc1c(N2C(=O)c3ccc(Br)cc3C2=O)c(=O)n(-c2ccccc2)n1C 100 µM [inhibitor, single point]
Cc1cc(N)ccc1-n1c(C)ccc1C 89.1 µM [inhibitor, single point]
CCc1ccccc1N(CC(=O)N1CCc2ccccc2C1)S(C)(=O)=O 6.31 µM [inhibitor, partial curve, poor fit]

Following part.

Potency, active:
COC(=O)C(=Cc1cc(Br)c(OC)c(Br)c1)C(=O)OC 8.91 µM
CCCCC[C@H](O)/C=C/C1C(=O)C=C[C@H]1C/C=C\CCCC(=O)OC (stereo partly specified) 25.1 µM
CC(C)Oc1ccc(C(=O)CCN2CCOCC2)cc1 44.7 µM
CCC(/C=C1\Sc2ccc(OC)cc2N1CCO)=C\c1sc2ccc(OC)cc2[n+]1CCO 79.4 µM
O=C1C2C3C=CC(CNS(=O)(=O)c4ccccc4)(O3)C2C(=O)N1c1ccc(Cl)cc1 (stereo unspecified) 79.4 µM
N#Cc1c(NC(=O)c2ccc(Br)o2)n(-c2ccccc2)c2nc3ccccc3nc12 8.91 µM
O=C1OC2(c3cc(I)c(O)c(I)c3Oc3c2cc(I)c(O)c3I)c2c(Cl)c(Cl)c(Cl)c(Cl)c21 5.01 µM
CCOc1ccc(/C=C(\C#N)C(=O)Nc2sc3c(c2C(=O)OC)C(C(=O)OC)CC3)cc1OC (stereo unspecified) 20 µM
CCN(CC)c1ccc(N)cc1S(=O)(=O)Nc1ccccc1OC 39.8 µM

Max response, negative = inhibition, inactive:
O=C(N/N=C/c1ccccn1)C1CC1 3.43%
COCCN(C(=O)CSc1nn(-c2ccc(F)cc2)c(=S)s1)c1c(N)n(CC(C)C)c(=O)[nH]c1=O 1.3%
CCn1c(=O)cc(N2CCN(C(=O)c3ccco3)CC2)[nH]c1=O -12.8%
COc1ccc(Cl)cc1C(=O)NNC(=O)COC(=O)CCN=C1NS(=O)(=O)c2ccccc21 -18.9%
Cc1ccc(NC(=O)c2cccc3cccnc23)cc1 2.89%
CCCCOc1ccc(C(=O)NCC(=O)N2CC(C)CC(C)C2)cc1 (stereo unspecified) 4.42%
Cc1ccn2c(NC(=O)c3cccs3)c(-c3ccccc3)nc2c1 -8.02%
CC(=O)C1(C)C(=O)N(c2ccc(C)cc2)C(=O)N1c1ccc(C)cc1 (stereo unspecified) -11.6%
CCCN1C(=O)c2ccccc2CC1(C)C(=O)NC1CCCCC1 (stereo unspecified) -4.82%
O=C(NCc1ccc2c(c1)OCO2)c1ccc2c(c1)N(Cc1ccc(F)cc1)C(=O)c1ccccc1S2=O (stereo unspecified) 2.1%
N#Cc1cnn(-c2ccccc2)c1N -3.31%
CC(=O)Nc1ccc(Nc2ccccc2)cc1 3.93%
O=C(NCC(c1cccs1)N1CCOCC1)c1cc2ccccc2oc1=O (stereo unspecified) -10.5%
Cc1ccc(N2C(=O)C3C(c4ccccc4)N4CCCN4C3(C)C2=O)cc1 (stereo unspecified) -10.9%
Cc1ccsc1/C=C1/SC(N2CC(C)OC(C)C2)=NC1=O (stereo unspecified) -17.1%
Cc1cccc(-c2c(NC(=O)c3ccco3)oc3c(C)cccc3c2=O)c1 -12.8%
CCN1C(c2ccc(F)cc2)=CS/C1=C(\C#N)c1nnc2n1-c1ccccc1SC2 -7.13%
